Assay results from article doi:10.1101/2023.02.27.530186 (bioRxiv, 2023).

What was measured:
[1] = target: T1, MetK of E. coli, C-terminally Strep-tagged (E. coli) (UniProt P0A817); test: pull-down
T1 sequence: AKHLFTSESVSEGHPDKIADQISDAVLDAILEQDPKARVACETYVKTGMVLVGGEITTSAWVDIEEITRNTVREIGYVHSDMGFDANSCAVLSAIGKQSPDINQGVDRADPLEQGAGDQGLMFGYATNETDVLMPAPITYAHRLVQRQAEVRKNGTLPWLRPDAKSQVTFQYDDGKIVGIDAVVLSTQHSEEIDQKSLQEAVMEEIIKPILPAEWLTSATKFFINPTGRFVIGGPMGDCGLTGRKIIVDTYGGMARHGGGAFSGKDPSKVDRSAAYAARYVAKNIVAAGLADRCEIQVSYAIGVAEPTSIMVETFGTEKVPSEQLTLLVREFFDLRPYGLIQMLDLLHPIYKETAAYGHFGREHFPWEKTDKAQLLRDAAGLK

[2] = target: T3 SAMase E68Q/Q94A (catalytically inactive), C-terminally Strep-tagged (bacteriophage T3) (UniProt P07693); test: pull-down
[3] = target: T3 SAMase T4A, His-tagged (bacteriophage T3) (UniProt P07693); test: pull-down
[4] = target: T3 SAMase E68Q/Q94A (catalytically inactive), C-terminally Strep-tagged (bacteriophage T3) (UniProt P07693); test: pull-down; remark: listed apart in the source
[5] = target: T3 SAMase I2A/T4S/K5S, His-tagged (bacteriophage T3) (UniProt P07693); test: pull-down
[6] = target: T3 SAMase Δ5 (5-amino-acid N-terminal truncation), His-tagged (bacteriophage T3) (UniProt P07693); test: pull-down
[7] = target: T3 SAMase Δ10 (10-amino-acid N-terminal truncation), His-tagged (bacteriophage T3) (UniProt P07693); test: pull-down
[8] = target: T3 SAMase E68Q/Q94A, C-terminally His6-tagged (bacteriophage T3) (UniProt P07693); test: pull-down
[9] = target: T3 SAMase E68Q/Q94A, C-terminally His6-tagged (bacteriophage T3) (UniProt P07693); test: SEC

T3 SAMase E68Q/Q94A, untagged (from UniProt P07693) (enzyme)
binding [1]: binds

transcription termination factor Rho of E. coli, endogenous (from UniProt P0AG30 1-419)
binding [2]: binds

B1: MetK, SAM synthase (methionine adenosyltransferase) of E. coli, endogenous (enzyme, UniProt P0A817 1-384, looked up)
chain: MAKHLFTSESVSEGHPDKIADQISDAVLDAILEQDPKARVACETYVKTGMVLVGGEITTSAWVDIEEITRNTVREIGYVHSDMGFDANSCAVLSAIGKQSPDINQGVDRADPLEQGAGDQGLMFGYATNETDVLMPAPITYAHRLVQRQAEVRKNGTLPWLRPDAKSQVTFQYDDGKIVGIDAVVLSTQHSEEIDQKSLQEAVMEEIIKPILPAEWLTSATKFFINPTGRFVIGGPMGDCGLTGRKIIVDTYGGMARHGGGAFSGKDPSKVDRSAAYAARYVAKNIVAAGLADRCEIQVSYAIGVAEPTSIMVETFGTEKVPSEQLTLLVREFFDLRPYGLIQMLDLLHPIYKETAAYGHFGREHFPWEKTDKAQLLRDAAGLK
binding [3]: binds | binding [4]: binds | binding [5]: no binding | binding [6]: no binding | binding [7]: no binding | binding [8]: binds | binding [9]: binds

B2: methionine synthase (MetE) of E. coli, endogenous (enzyme, UniProt P25665 1-753)
chain: MTILNHTLGFPRVGLRRELKKAQESYWAGNSTREELLAVGRELRARHWDQQKQAGIDLLPVGDFAWYDHVLTTSLLLGNVPARHQNKDGSVDIDTLFRIGRGRAPTGEPAAAAEMTKWFNTNYHYMVPEFVKGQQFKLTWTQLLDEVDEALALGHKVKPVLLGPVTWLWLGKVKGEQFDRLSLLNDILPVYQQVLAELAKRGIEWVQIDEPALVLELPQAWLDAYKPAYDALQGQVKLLLTTYFEGVTPNLDTITALPVQGLHVDLVHGKDDVAELHKRLPSDWLLSAGLINGRNVWRADLTEKYAQIKDIVGKRDLWVASSCSLLHSPIDLSVETRLDAEVKSWFAFALQKCHELALLRDALNSGDTAALAEWSAPIQARRHSTRVHNPAVEKRLAAITAQDSQRANVYEVRAEAQRARFKLPAWPTTTIGSFPQTTEIRTLRLDFKKGNLDANNYRTGIAEHIKQAIVEQERLGLDVLVHGEAERNDMVEYFGEHLDGFVFTQNGWVQSYGSRCVKPPIVIGDISRPAPITVEWAKYAQSLTDKPVKGMLTGPVTILCWSFPREDVSRETIAKQIALALRDEVADLEAAGIGIIQIDEPALREGLPLRRSDWDAYLQWGVEAFRINAAVAKDDTQIHTHMCYCEFNDIMDSIAALDADVITIETSRSDMELLESFEEFDYPNEIGPGVYDIHSPNVPSVEWIEALLKKAAKRIPAERLWVNPDCGLKTRGWPETRAALANMVQAAQNLRRG
binding [4]: binds

Where two headings read alike, the source gives them in different places. Results are given in words; binding and its absence hold for the method and conditions named. In cells and extracts the contact can be indirect. For some of these results: A result given as binding can be weak or reduced; the word gives no strength. For some of these results: Tags and fused reporters may be left off the sequences shown.
